Reference: article PMC5118791
These are yes or no findings as the source states them, for the method shown. A result given as binding can be weak or reduced; the word gives no strength.

Molecular target: recombinant Factor VIIa (rFVIIa)
Test: ELISA; plate coated with 100 nM rFVIIa in PBST pH 7.4; blocked with 2% milk; His-tagged proteins 0.1-1000 nM, 1 hour, 25 °C; detected with HRP anti-6xHis; both purified

B1: E-76 peptide (peptide)
peptide: ALCDDPRVDRWYCQFVEG
binding: binds
